“Also recorded” adds a separate entry of the source. Not every detail of the peptide structures is certain; ends, links or a residue may be inferred. For part of these data: At least one compound was matched to its structure with a doubt left. Positions of bridges follow the written chain, without caps; N, C: chain ends. Residues, ends and D or L forms follow the SMILES beside them. No end group written: not given here.
Key:
[1] = LPS binding in the in vitro limulus amebocyte lysate (LAL) assay; conditions: for binding of LPS / monophosphoryl lipid A in words: FIGS. 6-7
Procedure: We tested the ability of the peptide analogs of the present invention to bind LPS in the in vitro limulus amebocyte lysate (LAL) assay and compared them with the parent peptide, 20-44. […] Similarly, peptide 20-44ser42 was also capable of neutralizing the effect of monophosphoryl lipid A at concentrations greater than 500 μg/ml (FIG. 7).

S. typhimurium LT2 = experiment: survival of mice inoculated with live Salmonella typhimurium LT2; assay type: in vivo, mice (female, Balb/c); conditions: intravenous, oral and intraperitoneal routes
Procedure: Mice (female, Balb/c, 6-8 weeks) were administered a dose of live S. typhimurium LT2 (8×10^8/mouse) via the oral route. Without treatment, this dose of live organisms led to the death of all animals between day 3 and 4 (i.e. LD100 at day 3 or 4). Following challenge with Salmonella, peptide 20-44 (0-150 μg/mouse) was administered via the intravenous; oral, and intraperitoneal routes. […] At day 6 post infection, 100% of animals given a dose of 125 μg of peptide 20-44 intravenously survived. 80% of mice given 50, 100 and 150 μg of peptide survived through to day 5. Data shown in FIG. 10 strongly indicate that peptide 20-44 may also be given via the oral route since 80% survival rates were obtained with 100 μg of peptide. This is evidence that the peptide is not destroyed by the acid environment and enzymes of the stomach and indicates an alternative route of administration to the intravenous route discussed in FIG. 9. The third route of administration of peptide 20-44 was the intraperitoneal route. This is often the method of choice in a veterinary situation.

S. typhimurium SH9178 = experiment: in vitro bactericidal activity, S. typhimurium SH9178; assay type: cell-based, Salmonella typhimurium; conditions: FIG. 2
Procedure: Methods used herein are those previously described in U.S. Pat. Nos. 5,607,916; 5,627,262; and 5,650,392.
Peptides 20-44, 20-44ser26 and 20-44ser42, were assayed for bactericidal activity using S. typhimurium SH9178 as the test organism. […] Peptide 20-44ser42 killed 97.8% of bacteria at 75 μM, and peptide 20-44ser26 killed 99.6% of bacteria at 75 μM. Importantly, at concentrations of only 12.5 μM, peptide 20-44ser26 killed 70.4% of organisms and peptide 20-44ser42 killed 66.6% of bacteria. We tested these peptides with the smooth, more virulent LT2 strain of S. typhimurium, (FIG. 3). […] Indeed, the two serine analogs, 20-44ser26 and 20-44ser42 were able to kill 73% and 65% of bacteria at 12.5 μM, the lowest concentration of peptide tested. These levels of mortality were very much greater than those obtained using peptide 20-44. Two other organisms, Staphylococcus aureus ATCC strain 25923 and Enterococcus faecalis (a clinical isolate), both of which are gram-positive organisms, were also tested against 20-44ser26 and 20-44ser42.

[2] = system: LPS-mediated release of TNFα; experiment: LPS-mediated release of TNFα from rat peritoneal macrophages; assay type: cell-based; conditions: LPS stimulated macrophages, FIG. 8

In the case of “NQGRHFSGGALIHARFVMTAASCFQ [Peptide 20-44ser26]”, the “levels of free endotoxin (LPS)” value ([1]; 500 μg/ml and 1000 μg/ml, FIG. 6) is reported as “down to baseline levels”, the “binding of LPS / monophosphoryl lipid A in words” value ([1]; LAL assay) is reported as “capable of binding monophosphoryl lipid A; also recorded: bound LPS; also recorded: bind and neutralize the toxic effects of LPS endotoxin” and the “rescue from lethal infection in words” value (S. typhimurium LT2) is reported as “highly effective at rescuing animals from lethal infection; also recorded: can rescue mice from the lethal infection”. The “bactericidal activity in words” value (S. typhimurium SH9178) was “as active as the parent peptide” and the “reduction in TNFα levels” value ([2]; concentration not given) was 42.9%.

In the case of “NQGRHFCGGALIHARFVMTAASSFQ [Peptide 20-44ser42]”, the “concentrations neutralizing the effect of monophosphoryl lipid A” value ([1]; LAL assay, FIG. 7) is reported as “greater than 500 μg/ml”, the “binding of LPS / monophosphoryl lipid A in words” value ([1]; LAL assay) is reported as “bind and neutralize the toxic effects of LPS endotoxin” and the “binding of LPS / monophosphoryl lipid A in words” value ([1]; LAL assay, listed as 20-445ser42) is reported as “bound LPS”. The “rescue from lethal infection in words” value (S. typhimurium LT2) was “even more effective in saving animals from Salmonella infection than either the peptide 20-44 or peptide 20-44ser26; also recorded: can rescue mice from the lethal infection”, the “bactericidal activity in words” value (S. typhimurium SH9178) was “as active as the parent peptide” and the “decrease of TNF-α levels” value ([2]; 100 μg/ml) was 83.8%.

In the case of `CC[C@H](C)[C@@H]1NC(=O)[C@H](CC(C)C)NC(=O)[C@H](C)NC(=O)CNC(=O)CNC(=O)[C@@H](NC(=O)[C@H](Cc2ccccc2)NC(=O)[C@H](Cc2c[nH]cn2)NC(=O)[C@H](CCCNC(=N)N)NC(=O)CNC(=O)[C@H](CCC(N)=O)NC(=O)[C@@H](N)CC(N)=O)CSSC[C@@H](C(=O)N[C@@H](Cc2ccccc2)C(=O)N[C@@H](CCC(N)=O)C(=O)O)NC(=O)[C@H](CO)NC(=O)[C@H](C)NC(=O)[C@H](C)NC(=O)[C@H]([C@@H](C)O)NC(=O)[C@H](CCSC)NC(=O)[C@H](C(C)C)NC(=O)[C@H](Cc2ccccc2)NC(=O)[C@H](CCCNC(=N)N)NC(=O)[C@H](C)NC(=O)[C@H](Cc2c[nH]cn2)NC1=O` [Peptide 20-44] (H-NQGRHFCGGALIHARFVMTAASCFQ-OH; disulfide 7-23; N-terminus and C-terminus assumed), the mortality of bacteria (S. typhimurium SH9178; 100 μg/ml of peptide) is reported as 84%.

Reference: patent US6730659B2, “Antimicrobial peptides and methods of use thereof” (The Board of Regents of the University of Oklahoma, priority 1999, dated 2004)
